No constants are given. Whether binding was seen depends on the method and setting. Binding seen in cells or lysates may run through a third protein. Some results given as binding are weak or reduced against the parent protein; the word gives no strength. For some assays here: Where a sequence is shown, tags or fusion partners need not be part of it.
Assays:
[1] = biological target: ClC-4, mCherry-tagged (human) (UniProt P51793); assay: FRET or BRET; FLIM-FRET in co-transfected HEK293T cells 24 h after transfection; GFP donor (488 nm), mCherry acceptor; efficiency from the donor lifetime (phasor plot) against donor-only cells
[2] = biological target: T1, ClC-7, C-terminally GFP-tagged (human) (UniProt P51798); assay: as above
T1 sequence: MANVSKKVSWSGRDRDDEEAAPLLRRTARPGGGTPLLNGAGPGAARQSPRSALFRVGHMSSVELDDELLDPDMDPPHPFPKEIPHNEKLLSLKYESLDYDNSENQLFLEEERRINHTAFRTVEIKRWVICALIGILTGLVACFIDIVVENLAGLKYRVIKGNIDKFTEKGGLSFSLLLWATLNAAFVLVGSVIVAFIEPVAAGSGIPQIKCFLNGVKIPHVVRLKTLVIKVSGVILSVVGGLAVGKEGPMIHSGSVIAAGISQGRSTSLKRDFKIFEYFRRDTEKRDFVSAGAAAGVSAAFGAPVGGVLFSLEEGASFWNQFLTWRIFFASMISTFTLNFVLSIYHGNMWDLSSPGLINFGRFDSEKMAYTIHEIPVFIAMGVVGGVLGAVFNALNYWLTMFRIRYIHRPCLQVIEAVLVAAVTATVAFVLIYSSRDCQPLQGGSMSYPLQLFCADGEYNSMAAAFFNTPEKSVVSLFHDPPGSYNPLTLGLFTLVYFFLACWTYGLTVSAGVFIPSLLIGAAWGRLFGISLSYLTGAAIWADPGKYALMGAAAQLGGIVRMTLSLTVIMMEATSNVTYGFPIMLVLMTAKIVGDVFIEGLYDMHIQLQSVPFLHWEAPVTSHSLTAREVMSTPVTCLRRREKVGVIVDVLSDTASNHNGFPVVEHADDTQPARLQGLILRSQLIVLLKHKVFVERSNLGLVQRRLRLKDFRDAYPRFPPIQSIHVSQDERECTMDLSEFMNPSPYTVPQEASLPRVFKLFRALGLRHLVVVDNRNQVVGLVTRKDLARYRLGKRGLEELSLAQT

The chains behind the UniProt entries cited, without tags or fusion partners. Residues count along the entry.
UniProt P51793: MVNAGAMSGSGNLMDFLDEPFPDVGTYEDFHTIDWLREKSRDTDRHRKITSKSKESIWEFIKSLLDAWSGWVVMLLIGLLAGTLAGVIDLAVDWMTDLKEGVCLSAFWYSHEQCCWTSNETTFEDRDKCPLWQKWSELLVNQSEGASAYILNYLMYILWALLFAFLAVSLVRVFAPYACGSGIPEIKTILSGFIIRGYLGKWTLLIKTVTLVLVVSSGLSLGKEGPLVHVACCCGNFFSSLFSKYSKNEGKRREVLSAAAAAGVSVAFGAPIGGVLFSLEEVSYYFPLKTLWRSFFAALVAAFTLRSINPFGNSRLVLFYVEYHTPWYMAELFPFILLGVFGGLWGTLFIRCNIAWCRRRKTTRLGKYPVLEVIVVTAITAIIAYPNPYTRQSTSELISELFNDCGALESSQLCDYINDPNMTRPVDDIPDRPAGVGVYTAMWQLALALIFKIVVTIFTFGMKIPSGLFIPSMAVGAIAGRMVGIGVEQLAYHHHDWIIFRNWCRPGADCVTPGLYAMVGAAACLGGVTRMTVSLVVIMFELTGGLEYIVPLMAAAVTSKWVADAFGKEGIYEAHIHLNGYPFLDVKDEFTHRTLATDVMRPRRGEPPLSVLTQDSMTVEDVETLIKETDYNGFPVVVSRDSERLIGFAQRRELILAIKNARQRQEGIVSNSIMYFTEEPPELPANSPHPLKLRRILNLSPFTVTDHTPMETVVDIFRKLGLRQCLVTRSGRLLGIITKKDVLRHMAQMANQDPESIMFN
UniProt Q9JJR8, residues 35-199: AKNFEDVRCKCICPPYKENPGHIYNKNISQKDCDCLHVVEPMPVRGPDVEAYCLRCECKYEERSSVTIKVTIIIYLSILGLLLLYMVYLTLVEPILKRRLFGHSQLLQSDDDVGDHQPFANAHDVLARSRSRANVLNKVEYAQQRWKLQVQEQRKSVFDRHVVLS

binding [1]	binding [2]	Substance
binds		TMEM9 Domain Family Member B (TMEM9B), C-terminally GFP-6xHis-tagged (from UniProt Q9JJR8 35-199)
	no binding	TMEM9 Domain Family Member B (TMEM9B), C-terminally mCherry-tagged (from UniProt Q9JJR8 35-199)
